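Human melanoma cells were exposed to two drugs together for 72 h in 1,536-well plates and read by automated microscopy after fixing and staining. The read-out is the fraction of cleaved-PARP-positive nuclei, in % of that fraction in the DMSO control; 200 means twice the control level of this apoptosis marker. Concentrations were fixed for each drug; these are the higher of two levels. The file gives one value for each pair and line, without errors, so small differences may be noise. The marker varies much from line to line, for technical or biological reasons.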
Only some of the drugs and lines screened are listed, without regard to their results.

First drug in all entries: YM155, 0.002 µM, COCC[n+]1c2c(n(Cc3cnccn3)c1C)C(=O)c1ccccc1C2=O

For C[C@]1(O)C[C@@H](c2nc(-c3ccc4ccc(-c5ccccc5)nc4c3)c3c(N)nccn32)C1 at 2 µM the values were WM1745: 124; MEL-HO: 66.7.
For Cc1cc(SCc2sc(-c3ccc(C(F)(F)F)c(F)c3)nc2C)ccc1OCC(=O)O at 10 µM the values were WM1745: 81.0; MEL-HO: 46.8.
For CC1(C)NC(=O)N(c2ccc([N+](=O)[O-])c(C(F)(F)F)c2)C1=O at 5 µM the values were WM1745: 112; MEL-HO: 65.7.
For CC(=O)c1c(C)c2cnc(Nc3ccc(N4CCNCC4)cn3)nc2n(C2CCCC2)c1=O at 0.2 µM the values were WM1745: 120; MEL-HO: 236.
For NC(=O)Nc1cc(-c2cccc(F)c2)sc1C(=O)N[C@H]1CCCNC1 at 0.1 µM the values were WM1745: 102; MEL-HO: 164.
For CCN(CC)CCCCNc1ncc2cc(-c3cc(OC)cc(OC)c3)c(NC(=O)NC(C)(C)C)nc2n1 at 0.5 µM the values were WM1745: 109; MEL-HO: 21.8.
For COc1cc([C@@H]2c3cc4c(cc3[C@@H](O[C@@H]3O[C@@H]5CO[C@@H](C)O[C@H]5[C@H](O)[C@H]3O)[C@H]3COC(=O)[C@H]23)OCO4)cc(OC)c1O at 0.1 µM the values were WM1745: 120; MEL-HO: 39.4.
For C[C@@H]1CCN(C(=O)CC#N)C[C@@H]1N(C)c1ncnc2[nH]ccc12 at 5 µM the values were WM1745: 231; MEL-HO: 159.
For NC(=O)c1ccc(N(C(N)=O)c2c(F)cccc2F)nc1-c1ccc(F)cc1F at 2 µM the values were WM1745: 101; MEL-HO: 44.7.
For Cn1c(Nc2ccc(C(F)(F)F)cc2)nc2cc(Oc3ccnc(-c4ncc(C(F)(F)F)[nH]4)c3)ccc21 at 0.4 µM the values were WM1745: 136; MEL-HO: 132.
For CN(c1ncccc1CNc1nc(Nc2ccc3c(c2)CC(=O)N3)ncc1C(F)(F)F)S(C)(=O)=O at 0.4 µM the values were WM1745: 115; MEL-HO: 87.1.
For CC[C@]1(O)C[C@H]2CN(CCc3c([nH]c4ccccc34)[C@@](C(=O)OC)(c3cc4c(cc3OC)N(C=O)[C@H]3[C@@](O)(C(=O)OC)[C@H](OC(C)=O)[C@]5(CC)C=CCN6CC[C@]43[C@@H]65)C2)C1 at 0.0005 µM the values were WM1745: 215; MEL-HO: 115.
For CS(=O)(=O)CCNCc1ccc(-c2ccc3ncnc(Nc4ccc(OCc5cccc(F)c5)c(Cl)c4)c3c2)o1 at 4 µM the values were WM1745: 199; MEL-HO: 784.
For CCCCCCCCc1ccc(CCC(N)(CO)CO)cc1 at 10 µM the values were WM1745: 2070; MEL-HO: 2370.
For CC1(C)CCC(c2ccc(Cl)cc2)=C(CN2CCN(c3ccc(C(=O)NS(=O)(=O)c4ccc(N[C@H](CCN5CCOCC5)CSc5ccccc5)c(S(=O)(=O)C(F)(F)F)c4)cc3)CC2)C1 at 2 µM the values were WM1745: 2090; MEL-HO: 193.
For O=C(/C=C/c1cccnc1)NCCCCC1CCN(C(=O)c2ccccc2)CC1 at 0.05 µM the values were WM1745: 108; MEL-HO: 84.8.
For C=CCn1c(=O)c2cnc(Nc3ccc(N4CCN(C)CC4)cc3)nc2n1-c1cccc(C(C)(C)O)n1 at 0.1 µM the values were WM1745: 106; MEL-HO: 71.6.
For CCc1ccc(CCOc2ccc(CC3SC(=O)NC3=O)cc2)nc1 (stereo not given) at 10 µM the values were WM1745: 110; MEL-HO: 50.7.
For CCN(CC)CCNC(=O)c1c(C)[nH]c(/C=C2\C(=O)Nc3ccc(F)cc32)c1C at 2 µM the values were WM1745: 151; MEL-HO: 128.
For O=C(CCCCCCC(=O)Nc1ccccc1)NO at 0.4 µM the values were WM1745: 69.9; MEL-HO: 62.0.
For COc1ccc(COc2ccc(Cc3cnc(N)nc3N)cc2OC)cc1 at 5 µM the values were WM1745: 131; MEL-HO: 84.2.
For C=CCNC1=C2C[C@@H](C)C[C@H](OC)[C@H](O)[C@@H](C)/C=C(\C)[C@H](OC(N)=O)[C@@H](OC)/C=C\C=C(/C)C(=O)NC(=CC1=O)C2=O at 0.01 µM the values were WM1745: 110; MEL-HO: 30.5.
For COc1cc(N2CCC(N3CCN(C)CC3)CC2)ccc1Nc1ncc(Cl)c(Nc2ccccc2S(=O)(=O)C(C)C)n1 at 0.4 µM the values were WM1745: 194; MEL-HO: 107.
For c1cc(-c2cnn3cc(-c4ccc(OCCN5CCCCC5)cc4)cnc23)ccn1 at 2 µM the values were WM1745: 199; MEL-HO: 56.3.
For CNC(=O)c1cc(Oc2ccc(NC(=O)Nc3ccc(Cl)c(C(F)(F)F)c3)cc2)ccn1 at 2 µM the values were WM1745: 117; MEL-HO: 168.
For CCCCCCCCCCCC1=C(O)C(=O)C=C(O)C1=O at 6 µM the values were WM1745: 142; MEL-HO: 132.
For Cn1cc(/C=C2\C(=O)Nc3cccnc32)c2ccccc21 at 2 µM the values were WM1745: 124; MEL-HO: 147.
For Nc1cccc2c1CN(C1CCC(=O)NC1=O)C2=O (stereo not given) at 5 µM the values were WM1745: 206; MEL-HO: 270.
For C[C@@H](N)c1ccc(C(=O)Nc2ccnc3[nH]ccc23)cc1 at 2 µM the values were WM1745: 127; MEL-HO: 160.
For CN1CCN(c2ccc3nc(-c4c(N)c5c(F)cccc5[nH]c4=O)[nH]c3c2)CC1 at 0.5 µM the values were WM1745: 116; MEL-HO: 168.
For C[C@]1(c2nc3c(C(N)=O)cccc3[nH]2)CCCN1 at 7 µM the values were WM1745: 209; MEL-HO: 82.5.
For CO[C@H]1C[C@@H]2CC[C@@H](C)[C@@](O)(O2)C(=O)C(=O)N2CCCC[C@H]2C(=O)O[C@H]([C@H](C)C[C@@H]2CC[C@@H](OCCO)[C@H](OC)C2)CC(=O)[C@H](C)/C=C(\C)[C@@H](O)[C@@H](OC)C(=O)[C@H](C)C[C@H](C)/C=C/C=C/C=C/1C at 0.1 µM the values were WM1745: 136; MEL-HO: 53.0.
For Cc1ccc(Nc2nccc(N(C)c3ccc4c(C)n(C)nc4c3)n2)cc1S(N)(=O)=O at 2 µM the values were WM1745: 88.0; MEL-HO: 38.2.

Once more, the final 3:

Second drug	WM1745	MEL-HO
C[C@]1(c2nc3c(C(N)=O)cccc3[nH]2)CCCN1 at 7 µM	209	82.5
CO[C@H]1C[C@@H]2CC[C@@H](C)[C@@](O)(O2)C(=O)C(=O)N2CCCC[C@H]2C(=O)O[C@H]([C@H](C)C[C@@H]2CC[C@@H](OCCO)[C@H](OC)C2)CC(=O)[C@H](C)/C=C(\C)[C@@H](O)[C@@H](OC)C(=O)[C@H](C)C[C@H](C)/C=C/C=C/C=C/1C at 0.1 µM	136	53.0
Cc1ccc(Nc2nccc(N(C)c3ccc4c(C)n(C)nc4c3)n2)cc1S(N)(=O)=O at 2 µM	88.0	38.2

Data from the primary screen of doi:10.1371/journal.pone.0140310, rounded.